PubChem BioAssay AID602196 | INSERM – 2012
This is an unselected part of about 23,000 reagents tested. Of all reagents, 455 (2%) are marked active. 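Active includes both protection and sensitisation; some change values fall well beyond the stated -50 to +50 range.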 Reagents against one gene are numbered here. Not given: the amount of reagent.

Aim: 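Genes whose knock-down alters cisplatin killing of lung cancer cells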
Cell system: human A549 lung cancer cells
Reagent: siRNA pair against human genes
Timing: 48 h transfection before cisplatin; time from cisplatin to read-out not stated
Treatment: cisplatin at a dose killing half of control-siRNA cells; exact dose and duration not given
Detection: 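Cisplatin cell death as a shift from the 50% death seen with control siRNA; siRNAs toxic or growth-blocking alone scored 0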
Reading the numbers: two-siRNA summed score (-2 to +2): higher = both siRNAs protect from cisplatin killing; -2 means both sensitise; mean protection from cisplatin (shift in death) and protection from cisplatin (shift in death), siRNA C and protection from cisplatin (shift in death), siRNA D: higher = protection from cisplatin killing
Hit rule: 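siRNAs harmful alone (LDH or WST-1) get 0; others get +1 for less and -1 for more cisplatin killing; genes are active when the two siRNAs give the same sign, summing to ±2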
Meaning of the calls: active = both siRNAs shift cisplatin killing the same way; inactive = no consistent shift, or siRNA harmful alone

no.	gene symbol	reagent no.	two-siRNA summed score (-2 to +2)	mean protection from cisplatin (shift in death) (%)	protection from cisplatin (shift in death), siRNA C (%)	protection from cisplatin (shift in death), siRNA D (%)	outcome
1	LINC01138 (long independently transcribed non-coding RNA 1138)	1	0	12	8.2	15.8	inactive
2	AARS1 (alanyl-tRNA synthetase 1)	1	0	0.5	11.1	-10.2	inactive
3	AKAP10 (A-kinase anchoring protein 10)	1	-1	-4.3	-16.8	8.1	inactive
4	RP1 (RP1 axonemal microtubule associated)	1	0	4.7	-0.5	10	inactive
5	FKBP3 (FKBP prolyl isomerase 3)	1	0	5.1	5.5	4.6	inactive
6	USH1G (USH1 protein network component sans)	1	0	-0.6	6.7	-7.9	inactive
7	ACE (angiotensin I converting enzyme)	1	0	0	3.5	-3.6	inactive
8	FGF2 (fibroblast growth factor 2)	1	0	0.1	1.2	-1	inactive
9	ADH4 (alcohol dehydrogenase 4 (class II), pi polypeptide)	1	0	-3.6	-5.1	-2.1	inactive
10	RUNDC3B (RUN domain containing 3B)	1	1	4.5	-3.4	12.4	inactive
11	LOC440427	1	0	11.6	14.5	8.8	inactive
12	PARVA (parvin alpha)	1	0	-4.2	-4.3	-4.1	inactive
13	SEC23IP (SEC23 interacting protein)	1	2	14.7	7.9	21.6	active
14	GLI3 (GLI family zinc finger 3)	1	0	-3.2	1.4	-7.8	inactive
15	LOC440083	1	0	7.8	8.8	6.8	inactive
16	LINC00472 (long independently transcribed non-coding RNA 472)	1	0	6.3	1.6	11	inactive
17	SLC33A1	1	-1	-6.5	-12.2	-0.8	inactive
18	LOC401471	1	0	8.7	7.6	9.9	inactive
19	TERB1 (telomere repeat binding bouquet formation protein 1)	1	0	12.8	11.1	14.5	inactive
20	ZNF16 (zinc finger protein 16)	1	1	6.4	6.6	6.2	inactive
21	LOC389756	1	0	0.5	4.6	-3.6	inactive
22	RHBDF1 (rhomboid 5 homolog 1)	1	0	17.8	33.8	1.7	inactive
23	CASC3 (CASC3 exon junction complex subunit)	1	1	11.8	19.4	4.2	inactive
24	CATSPERE (catsper channel auxiliary subunit epsilon)	1	1	5.3	-5.9	16.5	inactive
25	CLCF1 (cardiotrophin like cytokine factor 1)	1	0	8.7	15.6	1.8	inactive
26	H3C10 (H3 clustered histone 10)	1	0	1.4	10.7	-7.8	inactive
27	DKFZp761O2018	1	0	6	6.5	5.5	inactive
28	KIR2DS1	1	0	5.5	6.5	4.5	inactive
29	PAN3 (poly(A) specific ribonuclease subunit PAN3)	1	0	9.4	5.1	13.7	inactive
30	RASGEF1B (RasGEF domain family member 1B)	1	0	-2	-0.6	-3.3	inactive
31	ITLN2 (intelectin 2)	1	0	-7.1	0.6	-14.8	inactive
32	SLC1A4	1	1	2.6	20.4	-15.1	inactive
33	LOC439983	1	0	3.5	5.8	1.2	inactive
34	PCYOX1 (prenylcysteine oxidase 1)	1	1	5.8	-7.5	19	inactive
35	ARMH3 (armadillo like helical domain containing 3)	1	0	17.8	0.7	35	inactive
36	MRPL38 (mitochondrial ribosomal protein L38)	1	0	-3.7	-7.7	0.2	inactive
37	SNRPG (small nuclear ribonucleoprotein polypeptide G)	1	0	2.6	-3.9	9.2	inactive
38	MFSD1 (major facilitator superfamily domain containing 1)	1	0	-1.8	-7.6	4.1	inactive
39	MMP23A (matrix metallopeptidase 23A (pseudogene))	1	0	-11.8	-21.4	-2.3	inactive
40	LOC389866	1	1	15	12.1	17.9	inactive
41	LOC400221	1	0	6.2	8	4.3	inactive
42	TCEAL9 (transcription elongation factor A like 9)	1	0	7.8	17.2	-1.7	inactive
43	EDA2R (ectodysplasin A2 receptor)	1	0	9.3	5.5	13.1	inactive
44	CTBP2 (C-terminal binding protein 2)	1	0	17	20.9	13.2	inactive
45	ZMAT4 (zinc finger matrin-type 4)	1	0	0.5	2.3	-1.3	inactive
46	SNX27 (sorting nexin 27)	1	0	11.9	6.9	16.9	inactive
47	LOC442030	1	0	9.1	-1.1	19.3	inactive
48	NIPAL2 (NIPA like domain containing 2)	1	0	13.7	10.6	16.9	inactive
49	COL8A2 (collagen type VIII alpha 2 chain)	1	0	5.1	-5	15.2	inactive
50	KPNA6 (karyopherin subunit alpha 6)	1	0	-7.6	-8	-7.2	inactive
51	ETV1 (ETS variant transcription factor 1)	1	2	15.7	10.5	20.9	active
52	FBLIM1P2 (FBLIM1 pseudogene 2)	1	-1	-3.1	5	-11.1	inactive
53	WAS (WASP actin nucleation promoting factor)	1	0	6	3.1	8.8	inactive
54	LTB (lymphotoxin beta)	1	0	2.7	1.6	3.9	inactive
55	PHEX (phosphate regulating endopeptidase X-linked)	1	-1	-0.8	-20.3	18.7	inactive
56	DNTT (DNA nucleotidylexotransferase)	1	0	13.7	22.8	4.7	inactive
57	DNTT (DNA nucleotidylexotransferase)	2	0	16.2	23.9	8.5	inactive

Reformatted: 7 of the entries above.
{"gene symbol":"RHBDF1 (rhomboid 5 homolog 1)","reagent no.":1,"two-siRNA summed score (-2 to +2)":0,"mean protection from cisplatin (shift in death) (%)":17.8,"protection from cisplatin (shift in death), siRNA C (%)":33.8,"protection from cisplatin (shift in death), siRNA D (%)":1.7,"outcome":"inactive"}
{"gene symbol":"CASC3 (CASC3 exon junction complex subunit)","reagent no.":1,"two-siRNA summed score (-2 to +2)":1,"mean protection from cisplatin (shift in death) (%)":11.8,"protection from cisplatin (shift in death), siRNA C (%)":19.4,"protection from cisplatin (shift in death), siRNA D (%)":4.2,"outcome":"inactive"}
{"gene symbol":"CATSPERE (catsper channel auxiliary subunit epsilon)","reagent no.":1,"two-siRNA summed score (-2 to +2)":1,"mean protection from cisplatin (shift in death) (%)":5.3,"protection from cisplatin (shift in death), siRNA C (%)":-5.9,"protection from cisplatin (shift in death), siRNA D (%)":16.5,"outcome":"inactive"}
{"gene symbol":"CLCF1 (cardiotrophin like cytokine factor 1)","reagent no.":1,"two-siRNA summed score (-2 to +2)":0,"mean protection from cisplatin (shift in death) (%)":8.7,"protection from cisplatin (shift in death), siRNA C (%)":15.6,"protection from cisplatin (shift in death), siRNA D (%)":1.8,"outcome":"inactive"}
{"gene symbol":"H3C10 (H3 clustered histone 10)","reagent no.":1,"two-siRNA summed score (-2 to +2)":0,"mean protection from cisplatin (shift in death) (%)":1.4,"protection from cisplatin (shift in death), siRNA C (%)":10.7,"protection from cisplatin (shift in death), siRNA D (%)":-7.8,"outcome":"inactive"}
{"gene symbol":"DKFZp761O2018","reagent no.":1,"two-siRNA summed score (-2 to +2)":0,"mean protection from cisplatin (shift in death) (%)":6,"protection from cisplatin (shift in death), siRNA C (%)":6.5,"protection from cisplatin (shift in death), siRNA D (%)":5.5,"outcome":"inactive"}
{"gene symbol":"KIR2DS1","reagent no.":1,"two-siRNA summed score (-2 to +2)":0,"mean protection from cisplatin (shift in death) (%)":5.5,"protection from cisplatin (shift in death), siRNA C (%)":6.5,"protection from cisplatin (shift in death), siRNA D (%)":4.5,"outcome":"inactive"}
